# Results reported in patent US20040152746A1, “Treatment of scarring and related conditions using ppar-gamma activators” (priority 2001, published 2004).
# For at least one compound, name, drawing or mass did not settle the structure.
# What was measured:
# [1] = system: Human dermal fibroblasts differentiated into myofibroblasts; assay: Cell shrinkage and cytoplasmic blebbing in pioglitazone-treated myofibroblasts; assay type: cell-based; conditions: 1 uM pioglitazone during differentiation, FIG. 3
# [2] = system: Human dermal fibroblasts differentiated to myofibroblasts with TGF-beta1; assay: Myofibroblast number after treatment with pioglitazone (alpha-smooth muscle actin immunohistochemistry); assay type: cell-based; conditions: FIG. 1
# Protocol: Human dermal fibroblasts were cultured on sterile cover-slips and allowed to adhere for 24 hours in fibroblast medium, i.e. (1.0 ml L-Glutamine (200 mM; Gibco), 1.0 ml non-essential amino acids, NEAA(100×; Gibco), 1.0 ml penicillin/streptomycin (100×Gibco), 10 ml new-born calf serum, NBCS (Gibco), 87 ml Dulbecco's modified Eagle's Medium, DMEM (Gibco)). At confluence, the medium was changed to myofibroblast differentiation medium, i.e. 1.0 ml L-Glutamine (200 mM; Gibco), 1.0 ml non-essential amino acids, NEAA(100×; Gibco), 10 ml penicillin/streptomycin (100×Gibco), 1 ml ITS (Insulin, Transferrin, Selenium)(100×Gibco)) supplemented with 1 ng/ml TGF-beta1 (Sigma). Myofibroblast differentiation was allowed to proceed for 3 days either in the presence of variable concentrations of pioglitazone or without. Myofibroblast number was determined by immunohistochemistry according to the following protocol. […] Haemotoxylin stained nuclei were counted by the software using size-exclusion parameters which excluded small and large debris. Accuracy was determined within the software using binary overlays of the counted objects to examine if any non-nuclei counts occurred or if any nuclei were missed. […] DAB positive cells were counted by hand on the captured images. Counts are expressed as % positive cells/total cells.
# [3] = system: fibroblasts and myofibroblasts; assay: Morphology of pioglitazone treated myofibroblasts in vitro (phase contrast microscopy); assay type: cell-based, human; conditions: 10 uM, FIG. 2; dying cells were myofibroblasts, mediated through apoptosis
smiles,measurement,setting,value
CCc1ccc(CCOc2ccc(CC3SC(=O)NC3=O)cc2)nc1 (centres unmarked) [pioglitazone],number of myofibroblasts as a proportion of total cell number,[1]; 1 ng/ml TGF-beta,reduced the number of myofibroblasts as a proportion of total cell number
same,morphology of alpha-smooth muscle actin positive cells,[1]; characteristics suggestive of apoptosis,membrane blebbing and cytoskeletal degradation
same,number of myofibroblasts as a proportion of total cell number,[2]; 0.1-10 μM,reduced the number of myofibroblasts as a proportion of total cell number in a dose response fashion
same,number of fibroblasts present at the end of the experimental period,"[2]; visual, control slides versus increasing doses",reduced the number of fibroblasts present at the end of the experimental period
same,cell death / morphology by phase contrast microscopy,[3],abundant cell death at higher concentrations
